Assay results reported in article PMC9908889.
These are yes or no findings as the source states them, for the method shown. Some results given as binding are weak or reduced against the parent protein; the word gives no strength. For some assays here: Where a sequence is shown, tags or fusion partners need not be part of it.

T1: ^15N-labeled MORFWH2 (aa 100–182) (human) (UniProt Q8WYB5)
T1 sequence: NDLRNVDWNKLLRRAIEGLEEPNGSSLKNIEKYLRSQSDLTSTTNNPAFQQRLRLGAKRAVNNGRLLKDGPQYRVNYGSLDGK


Tests used:
[1] = target: MORF_(WH2-DPF-MYST) (aa 100–703 with additional 3 lysine residues at the C-terminus) (human) (UniProt Q8WYB5); assay: co-expression and co-purification; MORF_(WH2-DPF-MYST) co-expressed and purified with BRPF1 (aa 89–139); which chain carried the affinity tag is not stated
[2] = target: T1, ^15N-labeled MORFWH2 (aa 100–182) (human); assay: NMR titration; 1H,15N HSQC of 0.1–0.2 mM 15N-labeled MORFWH2 with increasing amount of unlabeled His-MORFWH1, 298 K; both purified

binding [1]	binding [2]	Binder
binds		BRPF1 (aa 89–139) (domain or fragment, UniProt P55201 89-139) VMSYAQAQRMVEVDLHGRVHRISIFDNLDVVSEDEEAPEEAPENGSNKENT
	no binding	His-MORFWH1 (aa 5–84) (domain or fragment, UniProt Q8WYB5 5-84) ANPLYTEWILEAIQKIKKQKQRPSEERICHAVSTSHGLDKKTVSEQLELSVQDGSVLKVTNKGLASYKDPDNPGRFSSVK
